Experimental data reported in PubChem BioAssay AID2685 (National Center for Advancing Translational Sciences (NCATS), 2010).
Some of the results follow. Further columns of the screen follow, without active or inactive calls. The list favours compounds with an active or inconclusive main result. The note in brackets gives the kind of curve behind each potency; many fits are weak.

Experiment: qHTS Assay for Lipid Storage Modulators in Drosophila S3 Cells;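 as to cell number change: cells counted by Cell Tracker Red CMTPX staining in the red channel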
Conditions: BODIPY lipid droplet fluorescence, 18-24 h; for cell number change: measured here: cell count max response, cells fed with added oleic acid
How it was run: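 Drosophila S3 cells loaded with oleic acid (400 uM, as added) and compounds at several concentrations; lipid droplets imaged by 488-nm laser-scanning cytometry, 500–530 nm intensity and object ratio to cell channel. Percent activity normalized to 20 uM Triacsin C.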

[1] = measured here: cell number channel AC50, cells fed with added oleic acid
[2] = measured here: lipid fluorescence (Fed channel) AC50, cells fed with added oleic acid

Compound | cell number change [%] | AC50 [1] | AC50 [2]
COc1cccc(C2CNC3(CCCC(C)C3)c3[nH]c4ccccc4c32)c1OC (stereo not drawn) | -39.3 | 20.6 µM [falling, single point] | 23.1 µM [falling, single point]
COc1ccc2oc(C(=O)OCC(=O)NCc3ccccc3OC)c(C)c2c1 | -63.6 | 29.1 µM [falling, single point] | 10.3 µM [falling, partial curve]
CCOc1ccc(-c2nnc(N3CCCCC3)c3ccccc23)cc1 | -16.2 | 6.51 µM [falling, single point] | 4.61 µM [falling, single point]
COC(=O)c1ccc(Cl)c(-c2ccc(/C=N/NC(=O)Nc3ccccc3)o2)c1 | – | 0.651 µM [rising, single point] | 10.3 µM [rising, partial curve]
CC(=O)Nc1ccc(NC(=O)CSc2nc3ccccc3nc2N2CCC(C)CC2)cc1 | 38.8 | 29.1 µM [rising, single point] | 16.4 µM [rising, single point]
COc1ccc(C2CC(c3ccccc3)=NN2C(=O)CN2CCN(Cc3ccccc3)CC2)cc1 (stereo not drawn) | 22.5 | – | 1.84 µM [falling, partial curve]
Cc1occc1C(=O)NNC(=O)c1cccc(F)c1 | 20.5 | – | –
O=C(COC(=O)Cc1ccc(Cl)cc1Cl)NCCC1=CCCCC1 | -36.8 | 0.00461 µM [rising, full curve, poor fit] | –
CC(C)c1ccccc1NC(=O)Cn1c(/C=C/c2ccccc2)nc2ccccc21 | -19.8 | – | 16.4 µM [falling, partial curve, poor fit]
COc1ccc(OC)c(NC(=O)CN2C(=O)CSc3ccc(S(=O)(=O)N4CCCC4)cc32)c1 | -1.65 | – | –
CCc1ccc2nc(NC(=O)C3CSC4(C)CCC(=O)N34)sc2c1 (stereo not drawn) | 48.7 | 20.6 µM [rising, single point] | –
Cc1nc2ccccc2cc1O | -5.98 | 1.3 µM [falling, partial curve] | –
COC(=O)C1=C(C)NC(C)=C(C(=O)OC)C1c1ccccc1[N+](=O)[O-] | -1.35 | – | –
COc1ccc(/C=N/NC(=O)COc2ccccc2-c2ccccc2)cc1 | 2.6 | 0.517 µM [falling, single point] | –
CCOC(=O)C(/C=C(\C#N)C(=O)OCC)=C(/N)N1CCN(c2ccc(Cl)cc2)CC1 | 36.3 | 2.59 µM [rising, full curve] | 6.51 µM [rising, single point]
CC1CN(C(=O)CCNC(=O)c2ccc(Br)cc2)CC(C)O1 (stereo not drawn) | -3.85 | 6.51 µM [falling, single point] | 4.11 µM [falling, single point]
O=C(OCCC1Oc2cccnc2NC1=O)c1ccc([N+](=O)[O-])cc1 (stereo not drawn) | 26.1 | – | 23.1 µM [rising, single point]
CC1CN(C(=O)CSc2nnc(NC(=O)NC(C)(C)C)s2)CC(C)O1 (stereo not drawn) | -48.7 | 10.3 µM [falling, partial curve] | 1.64 µM [falling, partial curve]
Cc1ccccc1C(=O)NC1CCCCCCC1 | -9.45 | – | 3.66 µM [rising, full curve]

Compound | cell number change [%] | AC50 [1] | AC50 [2]
N=C1S/C(=C\c2ccc(-c3cccc(Cl)c3)o2)C(=O)N1c1nccs1 | -31.7 | 6.51 µM [falling, partial curve] | 11.6 µM [falling, partial curve]
Cc1ccc(C)c(NC(=S)NNC(=O)c2ccco2)c1 | -0.521 | – | 9.2 µM [rising, partial curve]
O=C(O)C1CC=CCC1C(=O)NCCc1cccc(Cl)c1 (stereo not drawn) | 27.3 | – | –
CN(CCCC(=O)Nc1ccccc1F)S(=O)(=O)c1ccc(F)cc1 | 7.98 | – | –
Cc1cc(C)nc(SCC(=O)OCN2C(=O)c3ccccc3C2=O)n1 | 2 | – | 0.00517 µM [falling, full curve, poor fit]
COc1ccc(C(C(=O)NC(C)(C)C)N(C(=O)CNC(=O)c2cccs2)c2cccnc2)cc1OC (stereo not drawn) | 4.78 | – | –
CN(/N=C/c1cc(Cl)cc(Cl)c1O)C(=S)NC(C)(C)C | 14.5 | – | –
Cc1ccc(C)c(NC(=O)C[n+]2ccccc2)c1 | 31.4 | 16.4 µM [rising, partial curve, poor fit] | –
O=C(O)c1cc(NC(=S)NC(=O)C(c2ccccc2)c2ccccc2)ccc1Cl | 6.36 | – | 0.146 µM [falling, full curve, poor fit]
COc1nc(NCc2cccnc2)nc(NC2CCCCC2)n1 | 46.8 | 6.51 µM [rising, partial curve] | 1.03 µM [rising, full curve]
NC(=O)C(F)(F)C12OC3C4C5CC(C6C5C3C61)C42 (stereo not drawn) | -18.6 | – | –
O=C(OCCOc1ccccc1)c1cc(S(=O)(=O)N2CCOCC2)ccc1Cl | 14.2 | – | 0.0291 µM [rising, full curve]
Oc1ccc2ccccc2c1CN1CCCC1 | 3.69 | – | 0.58 µM [rising, partial curve]
O=C(Nc1cccc(NC(=O)c2ccc(-c3cccc(Br)c3)o2)c1)c1ccco1 | -0.287 | – | 6.51 µM [falling, single point]
COc1ccccc1C1NC(c2ccccc2OC)C(C)C(=O)C1C (stereo not drawn) | -8.44 | – | –
Cc1cc(N2CCC(C(=O)N3CCN(c4cccc(C)c4C)CC3)CC2)n2ncnc2n1 | 3.85 | 1.84 µM [rising, partial curve] | –
CC(=O)Nc1ccc(NC(=O)C/C(C)=N/NC(=O)COc2cc(C)c(Br)cc2Br)cc1 | 30.2 | 29.1 µM [rising, single point] | 29.1 µM [rising, single point]
NC(=O)NC(=O)COC(=O)c1ccc2c(c1)C(=O)N(Cc1ccccc1)C2=O | 9.64 | 6.51 µM [falling, single point] | 6.51 µM [falling, single point]
COc1ccc(C(=O)N/N=C/c2ccccc2OC(=O)c2ccccc2)cc1 | -0.794 | – | 29.1 µM [falling, single point]

Ordered by heavy-atom count (low to high): some entries from above
Compound | cell number change [%] | AC50 [1] | AC50 [2]
COc1nc(NCc2cccnc2)nc(NC2CCCCC2)n1 | 46.8 | 6.51 µM [rising, partial curve] | 1.03 µM [rising, full curve]
COc1ccccc1C1NC(c2ccccc2OC)C(C)C(=O)C1C (stereo not drawn) | -8.44 | – | –
CC(=O)Nc1ccc(NC(=O)C/C(C)=N/NC(=O)COc2cc(C)c(Br)cc2Br)cc1 | 30.2 | 29.1 µM [rising, single point] | 29.1 µM [rising, single point]
